{
  "source": "patent US20100209426A1",
  "about": "“INHIBITORS OF PROGASTRIN-INDUCED REPRESSION OF ICAT FOR TREATING AND/OR PREVENTING COLORECTAL CANCER, ADENOMATOUS POLYPOSIS OR METASTASIS DISPLAYING PROGASTRIN-SECRETING CELLS AND CELLS IN WHICH THE BETA-CATENIN/TCF-MEDIATED TRANSCRIPTIONAL PATHWAY IS CONSTITUTIVELY ACTIVE” (INSERM (INSTITUT NATIONAL DE LA SANTE ET DE LA REC HERCHE …, priority 2006, published 2010)",
  "key": {"ICAT": {"system": "ICAT", "experiment": "ICAT expression in SW480 cells (RT-QPCR, immunoblotting)", "type": "cell-based, human", "method": "2.5 μg of total RNA was pretreated with DNAse RQ1 (Promega) for 30 min at 37° C. and used for reverse transcription with M-MLV reverse transcriptase (In vitrogen). Quantitative PCR was carried out using the LightCycler FastStart DNA MasterPlus SYBR Green I kit (Roche Diagnostics, Meylan, France), under the following conditions: Actin: denaturation during 10 min at 95° C., amplification for 50 cycles: 10 sec at 95° C., 6 sec at 58° C., 11 sec at 72° C. Melting curve: 0 sec at 95° C., 30 sec at 68° C., 0 sec at 95° C. and cooling was for 2 min at 40° C.: c-myc, ILK, chromogranin A and GAPDH amplification: denaturation during 10 min at 95° C., amplification for 50 cycles: 10 sec at 70° C., 6 sec at 58° C., 13 sec at 72° C. The melting curve was 0 sec at 95° C., 30 sec at 80° C., 0 sec at 95° C. and cooling was for 2 min at 40° C. Progastrin, Muc-2, ALP and ICAT amplification: denaturation during 10 min at 95° C., amplification during 50 cycles with: 10 sec at 70° C., 6 sec at 95° C., 11 sec at 72° C. The melting curve was 0 sec at 95° C., 30 sec at 80° C., 0 sec at 70° C. and cooling was for 2 min at 40° C. […]\nProtein lysates, immunoprecipitations and immunoblotting were performed as described before (Hollande et al., 2003) Proteins were visualized using ECL Plus (Amersham Biosciences) and the bands were quantified by densitometry using ImageJ 1.32J (NIH, Bethesda, Md.)."}, "[1]": {"system": "β-catenin/Tcf-4 transcriptional activity", "experiment": "TOP/FOP Luciferase reporter gene assay in SW480 cells", "type": "cell-based", "conditions": "SW480/βgal(−) cells, 10 μM LY294002 (FIG. S7)", "method": "The protocol used to measure the transcriptional activity of TCF/LEF-1 was described before (Morin et al., 1997). Briefly, cells were transfected with 500 ng of TCF/LEF-1 reporter (pTOP-FLASH), or control vector (pFOP-FLASH) and with 25 ng pCMV-Renilla. Luciferase activity was quantified using the Dual luciferase reporter assay system (Promega), and was normalized relative to the activity of Renilla."}},
  "note": "Entries after “also recorded” stand apart in the source; their conditions may differ. For at least one compound, name, drawing or mass did not settle the structure.",
  "data": [
    {"smiles": "O=c1cc(N2CCOCC2)oc2c(-c3ccccc3)cccc12", "note": "[LY294002]", "values": [
      {"measurement": "down-regulation of ICAT induced by recombinant progastrin", "setting": "ICAT; SW480/GAST(−) clones treated with recombinant progastrin and LY294002", "result": "abolished"},
      {"measurement": "ICAT expression", "setting": "ICAT; SW480/βgal(−) cells incubated with LY294002", "result": "sufficient to induce the expression"},
      {"measurement": "β-catenin/Tcf-4 transcriptional activity", "setting": "[1]", "result": "reduce; also recorded: inhibits"}
    ]}
  ]
}
